The target of this series is c-Jun bZIP (Arg252-Leu308) (Homo sapiens) (UniProt P05412). As to the kind of experiment: binding assay. The note with it: CITED Seldeen et al. 2011; c-Jun dimer/TRE; purified recombinant protein; protein details: His-SUMO cleaved, C-terminal GAP cap.

Amino acid sequences for entries named in this document (tags omitted). Chains listed by the source or under a name are the forms on record and can include a tag or linker.
UniProt P05412, other isoform, or with tags, fused parts or gaps: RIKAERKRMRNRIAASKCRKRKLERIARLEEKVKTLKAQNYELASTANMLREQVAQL

Construct, isoform or probe ends are uncertain for at least one entry.

Turning to “GTCAGTCAGTGACTCAATCGGTCA (double strand) [TRE duplex]”, the binding result is listed as “binds”.

For the origin of these results see US20250188151A1 (The University of Bath, priority 2022, published 2025).
